Measurements from “University of Dundee, Small-Polar-MMV Screening Library” (2021), ChEMBL document CHEMBL3988442.

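Cell assay of Leishmania donovani living inside macrophages; the read-out is not stated. Compounds at 30 µM. The record gives no direction; compounds that gave an IC50 in retests scored well above the rest, so higher reads as stronger inhibition. Of about 69,000 compounds tested this way, about 1,000 (1.5%) reached 50% or more in at least one test.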

Values are the deposited “Percent Effect”, in %.
How 0% and 100% were set is not recorded. Most values in the screen are low, and negative values occur.
Compounds were drawn at random from those tested, without regard to their results.
Two or more numbers in one place are separate tests of the same structure; such repeats can differ widely.

| # | compound | percent effect |
|---|---|---|
| 1 | `CCCc1noc(C2CCN(C(=O)CCn3nc(C)cc3C)CC2)n1` | -17.88% |
| 2 | `O=C(c1ccn(-c2cccc(F)c2)n1)N1CCN(CCO)CC1` | 9.199% |
| 3 | `Cc1nn(C)c2c(=O)n(Cc3ccc(Cl)cc3)nnc12` | 45.09% |
| 4 | `COc1ccc(OCCN(C)CCCn2cnc3c(N)ncnc32)cc1` | -14.73% |
| 5 | `COCC1CN(C(=O)Cc2ccccn2)Cc2cn(CC3CC3)nc21` (stereo unspecified) | 22.43% |
| 6 | `Cn1cncc1CN1CCC2(CC1)CCN2c1ncccn1` | 14.36% |
| 7 | `CCn1cc(CN(C)S(=O)(=O)c2cc(Cl)ccc2Cl)cn1` | 8.561% |
| 8 | `COc1ncc(NCc2cc(C#N)cs2)cc1C(N)=O` | 15.8% |
| 9 | `COc1ccc(CC2(CO)CCN(c3cc(N)ncn3)CC2)cc1` | -1.176% |
| 10 | `Cc1ccc(C)c(C(O)Cn2cc(Cl)c(=O)[nH]c2=O)c1` (stereo unspecified) | -0.3034% |
| 11 | `Cc1[nH]nc2ncc(C(=O)N3CCN(CC(C)O)CC3)cc12.Cl` (stereo unspecified) | -7.583% |
| 12 | `Cc1ccccc1Oc1ncccc1CNS(C)(=O)=O` | -7.173% |
| 13 | `C[C@@H]1CN(C(=O)CSc2nncn2C)C[C@@]1(O)C1CC1` | -10.69% |
| 14 | `O=C(O)c1cc(S(=O)(=O)Nc2cccc(F)c2F)cc2c1OCCO2` | 12.77% |
| 15 | `Cn1ccnc1CN1C[C@@H](F)[C@@H](OCc2nc3cnccc3[nH]2)C1` | -16.79% |
| 16 | `Cc1cnccc1N1CCN(C(=O)CCCN2CCCCC2)CC1` | 14.13% |
| 17 | `CCc1cnc(CN(C)C2CCN(c3sccc3C#N)C2=O)s1` (stereo unspecified) | 43.02% |
| 18 | `CNCc1ccc([C@@H]2CN(C(C)=O)C[C@H]2C(N)=O)cc1.Cl` | 20.81% |
| 19 | `O=C(COc1ccccc1)NS(=O)(=O)Cc1ccccc1` | 23.16% |
| 20 | `COCC(=O)N1CCN(C(=O)c2scnc2C)CC1` | 16.98% |
| 21 | `CC1C(=O)Nc2cccnc2N1S(=O)(=O)c1ccc(C#N)c(Cl)c1` (stereo unspecified) | 13.42% |
| 22 | `CCS(=O)(=O)c1ncc(CN2CCSCC2)n1CCc1ccccc1` | -22.76% |
| 23 | `Cc1cc(NC(=O)CNC(C)(C)c2ccc3c(c2)OCO3)on1` | 2.324% |
| 24 | `CCn1nccc1CNC(=O)C(C)n1cc2c(n1)c(C)nn2C` (stereo unspecified) | -8.273% |
| 25 | `CN(CCO)Cc1nnc(C2CCN(C(=O)c3ccccn3)CC2)n1C` | 19.31% |
| 26 | `CCN(C(=O)NCc1ccccc1OC(F)F)C(C)c1cccnc1` (stereo unspecified) | 43.41% |
| 27 | `[H][C@]12CCN(C(=O)NC)CC[C@@]1([H])S(=O)(=O)N(Cc1ccccc1)C2` | 9.986% |
| 28 | `CCCOc1ccc(Cl)cc1CNc1ncnc2oc(C)nc12` | 22.92% |
| 29 | `O=C(O)CCn1nc(C(F)(F)F)c(Cl)c1C1CC1` | 19.89% |
| 30 | `O=C(c1cccnc1)N1CCOC(CCCc2ccccc2)C1` (stereo unspecified) | 13.26% |
| 31 | `CC(C)NC(=O)N1CCN(c2ccc(Cl)nn2)C(=O)C1` | 3.833% |
| 32 | `CC(=O)NC1(C(=O)N2CCC(Nc3cccnn3)CC2)CCCCC1` | -9.652% |
| 33 | `O=C(O)C(F)(F)F.[H][C@@]12CCN(c3ncc(F)cn3)[C@]1([H])CC[C@H](C(=O)NC1CCCC1)O2` | -16.15% |
| 34 | `CCCn1cc(S(=O)(=O)N[C@H]2CN(CCO)C[C@@H]2C2CC2)cn1` | 20.6% |
| 35 | `Cc1csc(CCNC(=O)C2CCCN(C3CCOCC3)C2)n1` (stereo unspecified) | -3.021% |
| 36 | `Cc1nc(CN2CCOC3(CCCC3)C2)no1` | -12.72% |
| 37 | `COc1ccc(CN2CCCN(C(=O)C(C)n3ccnc3)CC2)cc1` (stereo unspecified) | 38.97% |
| 38 | `CO[C@H]1CN(Cc2ccccc2F)C[C@@]12CCCO2` | 9.805% & 11.42% |
| 39 | `O=C(O)C(F)(F)F.O=C(O)C(F)(F)F.[H][C@@]12COC[C@]1([H])[C@@H](OCC1CCN(C)CC1)CN2Cc1c(C)noc1C` | 36.25% |
| 40 | `COc1ccc(C(=O)N(CCO)Cc2ccccc2)c(OC)n1` | 14.13% |
| 41 | `CCOc1nnc(CN2CCC(N(C)Cc3noc(C)n3)C2)s1` (stereo unspecified) | 3.522% |
| 42 | `CS(=O)(=O)c1ccc(CC(=O)N2CCN3CCNC(=O)C3C2)cc1` (stereo unspecified) | 6.75% |
| 43 | `Cc1nc(CNC2CC(=O)N(CCc3cccc(Cl)c3)C2)c[nH]1` (stereo unspecified) | 40.83% |
| 44 | `Oc1nnc(-c2ccccc2)c2sc(N3CCCCC3)nc12` | 9.707% |
| 45 | `COc1cc(C)c(C(C)NC(=O)c2cccnc2N(C)C)cc1OC` (stereo unspecified) | 23.06% |
| 46 | `Cc1ccccc1C(C)NC(=O)Cc1c(C)nc2cc(=O)[nH]n2c1C` (stereo unspecified) | -45.69% |
| 47 | `Cc1nc[nH]c1CN1CCn2nc(CN3Cc4ccccc4C3)cc2C1` | 24.18% |
| 48 | `Cc1nc2c(c(NC3CC3)n1)CCN(C(=O)C1(C#N)CC1)CC2` | 40.57% |
| 49 | `[H][C@]1([C@@]2(C)CC[C@H](O)C(C)(C)O2)CC2(CCN(c3cnccn3)CC2)CO1` | -0.03232% |
| 50 | `CC(C)(C)c1cc(=O)[nH]c(-c2ccccc2CN2CCC[C@@H](O)C2)n1` | 10.56% |
| 51 | `Cc1ccc(C(=O)Nc2cn[nH]c2)cc1F` | 4.536% |
| 52 | `CC(C)C1C(=O)NCCN1C(=O)CCCc1nc(C(C)(C)C)no1` (stereo unspecified) | 9.711% |
| 53 | `CC(C)(C)OC(=O)N1CC(=O)N(Cc2ccco2)CC(O)C1` (stereo unspecified) | -7.234% |
| 54 | `CS(=O)(=O)c1ccc2c(c1)N(C(=O)c1cccc(F)c1)CCC2` | 26.55% |
| 55 | `Oc1cc(C2CCCCN2C2CCCC2)nc(-c2cccnc2)n1` (stereo unspecified) | -1.848% |
| 56 | `O=C(Nc1cccc(CN2CCOC2=O)c1)N1CCOCC1` | -6.073% |
| 57 | `CCOc1ccccc1C(=O)N1CCCC(O)(CN(C)C)C1` (stereo unspecified) | -25.22% |
| 58 | `CC(=O)N1CCCC(Cc2cnc(-c3c(C)nn(C)c3C)cn2)C1` (stereo unspecified) | 22.3% |
| 59 | `CCN(Cc1c(C)nn(C)c1C)C(=O)C1COc2ccccc2C1` (stereo unspecified) | -4.743% |
| 60 | `Cc1ccc(S(=O)(=O)NC(=O)c2cc(S(C)(=O)=O)ccc2C)s1` | -52.31% |
| 61 | `Cc1cnc(N2C(=O)CSC2c2ccccc2)s1` (stereo unspecified) | 44.75% |
| 62 | `CCn1c(C2CCCN(C(=O)C(C)(C)OC)C2)nn(CCN(C)C)c1=O` (stereo unspecified) | -1.825% |
| 63 | `Cc1c(C2CCCN(C(=O)Cc3ccccn3)C2)n2c(nc1=O)CCC2.Cl` (stereo unspecified) | -4.822% |
| 64 | `Cc1ncsc1C(=O)NCCNC(=O)Cc1cccc(F)c1` | -17.46% |
| 65 | `O=C(O)C(F)(F)F.[H][C@@]12COC[C@]1(CNC(=O)c1cscn1)CN(Cc1nccs1)C2` | 14.84% |
| 66 | `CCC(O)CN1CCN(C(=O)c2cnn(-c3ccccc3F)c2)CC1` (stereo unspecified) | -1.419% |
| 67 | `CCC(C(=O)NCc1nc(C)cc(C(F)(F)F)n1)n1cccn1` (stereo unspecified) | 13.87% |
| 68 | `O=S(=O)(c1ccc2c(c1)OCCO2)N1CCc2ccccc2C1` | 20.12% |
| 69 | `O=C(c1cccs1)N1CCc2c(nc(N3CCCC3)[nH]c2=O)C1` | -25.29% |
| 70 | `Cc1ccc(-n2nc(C)c3c(C)cc(OCC(=O)NC(C)C)nc32)cc1` | -0.2641% |
| 71 | `CN1CC2(CCN(C(=O)c3ccc(-n4cnnc4)cc3Cl)CC2)OC1=O` | 37.58% |
| 72 | `O=C(NCCc1ccccc1)NCC(O)c1cccs1` (stereo unspecified) | -4.559% |
| 73 | `c1cc(CNCC2Cn3nncc3CO2)cs1` (stereo unspecified) | 46.33% |
| 74 | `CCc1ccc(C2CCCN2C(=O)Cc2ccc(NC(C)=O)cc2)o1` (stereo unspecified) | 11.55% |
| 75 | `O=S(=O)(Nc1cnc(N2CCCC2)nc1)c1ccc(OC(F)(F)F)cc1` | 9.263% |
| 76 | `CCc1oc2ccc(NS(C)(=O)=O)cc2c1C(=O)OC` | 5.329% |
| 77 | `[H][C@]12CC[C@]([H])(CN(C)C1)N(C(=O)c1ccc(-c3ccccc3OC)cc1)C2` | -40.4% |
| 78 | `NS(=O)(=O)CCN1CCN(c2ccccc2O)CC1` | 21.12% |
| 79 | `COc1ccc(CN2CC[C@@H](O)[C@@H]2Cc2cnn(C)c2)cc1.O=C(O)C(F)(F)F` | 9.344% |
| 80 | `CC(C)(C)S(=O)(=O)CCNC1CSCCc2ccccc21` (stereo unspecified) | -19.11% |
| 81 | `COCC(O)CNc1ccc(C#N)cc1C(F)(F)F` (stereo unspecified) | -1.752% |
| 82 | `O=C(O)C(F)(F)F.[H][C@]12CC[C@@]3(N=C(CC)NC3=O)[C@@]1([H])CN(CC(C)C)C2` | 7.736% |
| 83 | `O=C1CC(c2ccc3c(c2)OCO3)c2c(n3ccsc3nc2=O)N1` (stereo unspecified) | -7.021% |
| 84 | `CNC(=O)C1CCCCN1C(=O)CCn1cnc2sccc2c1=O` (stereo unspecified) | -24.56% |
| 85 | `CCc1noc(C2CCCCN2C(=O)c2ccc(C)o2)n1` (stereo unspecified) | -33.02% |
| 86 | `CC(C)(C)c1nc(CNC(=O)N2CCc3ccccc3C2CO)no1` (stereo unspecified) | 3.598% |
| 87 | `Cn1cc(C(=O)CC2CCCN2C(=O)c2cncc3ccccc23)cn1` (stereo unspecified) | 7.799% |
| 88 | `CCS(=O)(=O)N1CCc2cc(C(=O)NC)c(NCC3CC3)nc2CC1` | 7.394% |
| 89 | `O=C(c1cc(F)ccc1O)N1CCN(C(=O)C2CCC2)CC1` | 9.73% |

Once more, the final 9:

COCC(O)CNc1ccc(C#N)cc1C(F)(F)F (stereo unspecified) gave -1.752%.
O=C(O)C(F)(F)F.[H][C@]12CC[C@@]3(N=C(CC)NC3=O)[C@@]1([H])CN(CC(C)C)C2 gave 7.736%.
O=C1CC(c2ccc3c(c2)OCO3)c2c(n3ccsc3nc2=O)N1 (stereo unspecified) gave -7.021%.
CNC(=O)C1CCCCN1C(=O)CCn1cnc2sccc2c1=O (stereo unspecified) gave -24.56%.
CCc1noc(C2CCCCN2C(=O)c2ccc(C)o2)n1 (stereo unspecified) gave -33.02%.
CC(C)(C)c1nc(CNC(=O)N2CCc3ccccc3C2CO)no1 (stereo unspecified) gave 3.598%.
Cn1cc(C(=O)CC2CCCN2C(=O)c2cncc3ccccc23)cn1 (stereo unspecified) gave 7.799%.
CCS(=O)(=O)N1CCc2cc(C(=O)NC)c(NCC3CC3)nc2CC1 gave 7.394%.
O=C(c1cc(F)ccc1O)N1CCN(C(=O)C2CCC2)CC1 gave 9.73%.